Source: patent US20240309003A1, “HETEROCYCLIC COMPOUNDS AS TRIGGERING RECEPTOR EXPRESSED ON MYELOID CELLS 2 AGONISTS AND METHODS OF USE” (Vigil Neuroscience, Inc., priority 2021, published 2024)
Like-named read-outs stand apart in the source and are kept apart here. The match of structure and compound is tentative.

Protein sequences, listed by entry. Tags and fused reporters are not part of them. Residues count along the entry.
UniProt Q9NZC2, 19-230 limits assumed: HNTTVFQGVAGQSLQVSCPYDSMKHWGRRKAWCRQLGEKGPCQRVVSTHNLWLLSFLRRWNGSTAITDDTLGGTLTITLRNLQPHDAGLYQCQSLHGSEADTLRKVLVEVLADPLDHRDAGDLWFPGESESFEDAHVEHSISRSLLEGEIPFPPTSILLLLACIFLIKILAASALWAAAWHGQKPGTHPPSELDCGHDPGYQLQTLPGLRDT
UniProt O43914, 22-113 partner limits assumed: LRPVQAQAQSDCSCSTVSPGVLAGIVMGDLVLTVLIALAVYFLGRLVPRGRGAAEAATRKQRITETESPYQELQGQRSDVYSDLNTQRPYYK

Target: human TREM2 (Homo sapiens, UniProt Q9NZC2)
Assay: TREM2 agonist potency by cellular phosphorylation of Syk (AlphaLisa) in HEK293T-hTREM2 cells

SMILES | EC50 (read-out: hTREM2 EC50, HEK293 cells expressing human TREM2 and DAP12, Table D) | EC50 (read-out: hTREM2 EC50, HEK293 cells expressing human TREM2 and DAP12, Table D-2)
Cc1ccc2c(-c3ccc(Cl)cc3F)nc([C@H]3C[C@@H](C)O[C@@H](c4cnn(C5CC5)c4)C3)nc2n1 | < 50 nM | 
Cc1nc2nc([C@H]3CCO[C@@H](c4cnn(C5CC5)c4)C3)nc(-c3ccc(OC(F)F)cc3F)c2nc1C |  | 50 to 500 nM
